Measured values from PubChem BioAssay AID260 (DTP/NCI, 2004).
The list is a part of this screen's results and no random one: it is rich in T/C values a quarter to a half above the control, in often repeated tests (any T/C) and in doses without a T/C. Other doses and runs of a compound stand elsewhere. T/C: endpoint of the treated group in % of that of the vehicle group. Some entries give survivors of the animals treated and no T/C: the source files T/C as zero there, which appears to mark a toxic dose or a test without result, not a measured value. Some doses without a T/C left all or most animals alive at the check, yet need not have been tolerated: survival well below the control is almost never listed, so the zero probably covers shortened survival too. Counts of survivors are from the toxicity check (mostly the fifth day) where no day follows; animals may have died later. Schedules are NCI's codes, taken here to give the interval after Q, in days (D) or hours (H), and the number of doses after X. Some entries hold several experiments; the results are listed from low to high. For survival time, this PubChem deposit counts one and a half times the control or more as active, and values a quarter to a half above the control carry no call in these data; other NCI protocols may use other cut-offs.

System: CD2F1 mice, intracerebral L1210 leukemia, survival T/C
Assay: NCI In Vivo Anticancer Drug Screen. Data for tumor model L1210 Leukemia (intracerebral) in CD2F1 (CDF1) mice
Conditions: higher T/C = longer survival
Description: The antitumor activity of compounds was measured in mice bearing transplantable tumors. Survival or tumor size were measured and the results are expressed as the measurement made in the treated group (T) divided by the measurement made in the vehicle treated control group (C). The tumor model used in this assay is L1210 Leukemia (intracerebral) in CD2F1 (CDF1) mice

[1] = T/C endpoint: median survival time, dose: 512.0 mg/kg/injection, schedule: Q01DX005 (ip), vehicle: saline with Tween-80
[2] = T/C endpoint: median survival time, dose: 256.0 mg/kg/injection, schedule: Q01DX005 (ip), vehicle: saline with Tween-80
[3] = T/C endpoint: median survival time, dose: 512.0 mg/kg/injection, schedule: Q01DX005 (ip), vehicle: Klucel (hydroxypropylcellulose) (HPC)
[4] = T/C endpoint: median survival time, dose: 1024.0 mg/kg/injection, schedule: Q01DX005 (ip), vehicle: Klucel (hydroxypropylcellulose) (HPC)
[5] = T/C endpoint: median survival time, dose: 1.5 mg/kg/injection, schedule: Q01DX009 (ip), vehicle: saline

CN(C)/N=N/c1[nH]ncc1C(N)=O
T/C (T/C endpoint: median survival time, dose: 64.0 mg/kg/injection, schedule: Q01DX005 (ip), vehicle: saline with Tween-80): 142 % of control
survivor count [1]: 3 of 6

Cc1c2ccncc2c(C)c2c1[nH]c1ccccc12
survivor count (T/C endpoint: mean survival time, dose: 40.0 mg/kg/injection, schedule: Q01DX009 (ip), vehicle: saline): 6 of 10
survivor count (T/C endpoint: mean survival time, dose: 80.0 mg/kg/injection, schedule: Q01DX009 (ip), vehicle: saline): 1 of 10

Nc1nncs1
T/C (T/C endpoint: median survival time, dose: 15.0 mg/kg/injection, schedule: Q01DX009 (ip), vehicle: Klucel (hydroxypropylcellulose) (HPC)): 131 % of control
T/C (T/C endpoint: median survival time, dose: 30.0 mg/kg/injection, schedule: Q01DX009 (ip), vehicle: Klucel (hydroxypropylcellulose) (HPC)): 140 % of control
survivor count (T/C endpoint: median survival time, dose: 120.0 mg/kg/injection, schedule: Q01DX009 (ip), vehicle: Klucel (hydroxypropylcellulose) (HPC)): 10 of 10
T/C (T/C endpoint: median survival time, dose: 128.0 mg/kg/injection, schedule: Q01DX005 (ip), vehicle: saline with Tween-80): 133 and 136 % of control
survivor count (T/C endpoint: median survival time, dose: 240.0 mg/kg/injection, schedule: Q01DX009 (ip), vehicle: Klucel (hydroxypropylcellulose) (HPC)): 10 of 10
T/C [2]: 138 % of control
survivor count [2]: 7 of 10 and 10 of 10
T/C [1]: 135 % of control
survivor count [1]: 7 of 10 and 8 of 10

O=NN(CCCl)C(=O)NC1CCCCC1
T/C (T/C endpoint: median survival time, dose: 8.0 mg/kg/injection, schedule: Q01DX001 (ip), vehicle: other): 138 % of control
T/C (T/C endpoint: median survival time, dose: 32.0 mg/kg/injection, schedule: Q01DX001 (ip), vehicle: saline + alcohol): 141 % of control
survivor count (T/C endpoint: median survival time, dose: 64.0 mg/kg/injection, schedule: Q01DX001 (ip), vehicle: other): 6 of 6
survivor count (T/C endpoint: median survival time, dose: 128.0 mg/kg/injection, schedule: Q01DX001 (ip), vehicle: other): 3 of 6

COc1cc2c(c3c1c(=O)c1ccccc1n3C)C=CC(C)(C)O2
survivor count (T/C endpoint: median survival time, dose: 256.0 mg/kg/injection, schedule: Q01DX005 (ip), vehicle: Klucel (hydroxypropylcellulose) (HPC)): 1 of 10 and 2 of 10
survivor count [3]: 0 of 10 and 1 of 10
survivor count [4]: 0 of 10

Nc1ccn([C@@H]2C=C(CO)[C@@H](O)[C@H]2O)c(=O)n1
T/C (T/C endpoint: median survival time, dose: 0.67 mg/kg/injection, schedule: Q01DX009 (ip), vehicle: saline): 130 % of control
T/C (T/C endpoint: median survival time, dose: 1.0 mg/kg/injection, schedule: Q01DX009 (ip), vehicle: saline): 134 and 141 % of control
T/C [5]: 141 and 145 % of control
T/C (T/C endpoint: median survival time, dose: 2.25 mg/kg/injection, schedule: Q01DX009 (ip), vehicle: saline): 144 % of control

NC(=S)N/N=C/c1ccc(O)cn1
T/C (T/C endpoint: median survival time, dose: 96.0 mg/kg/injection, schedule: Q01DX005 (ip), vehicle: saline): 128 % of control

C#CCN(C)/N=N/c1nc[nH]c1C(N)=O
T/C (T/C endpoint: median survival time, dose: 32.0 mg/kg/injection, schedule: Q01DX005 (ip), vehicle: saline with Tween-80): 125 % of control
survivor count [2]: 0 of 6

COc1cc([C@@H]2c3cc4c(cc3[C@@H](OC3OC5COC(C)OC5C(O)C3O)[C@H]3COC(=O)[C@H]23)OCO4)cc(OC)c1O (stereo partly specified)
T/C (T/C endpoint: median survival time, dose: 16.0 mg/kg/injection, schedule: Q01DX009 (ip), vehicle: saline): 128 % of control

Nc1nc(F)nc2c1ncn2C1OC(COP(=O)(O)O)C(O)C1O (stereo unspecified)
T/C (T/C endpoint: median survival time, dose: 134.0 mg/kg/injection, schedule: Q01DX009 (ip), vehicle: saline): 131 % of control

C[C@@H]1C[C@@H]([C@H](O)CC2CC(=O)NC(=O)C2)C(=O)[C@@H](C)C1
survivor count (T/C endpoint: mean survival time, dose: 160.0 mg/kg/injection, schedule: Q01DX009 (ip), vehicle: saline): 2 of 6

CCN(CC)c1ccc2cc3ccc(=[N+](CC)CC)cc-3oc2c1
T/C (T/C endpoint: median survival time, dose: 4.0 mg/kg/injection, schedule: Q01DX005 (ip), vehicle: saline): 133 % of control
T/C (T/C endpoint: median survival time, dose: 8.0 mg/kg/injection, schedule: Q01DX005 (ip), vehicle: saline): 126 % of control
survivor count (T/C endpoint: median survival time, dose: 32.0 mg/kg/injection, schedule: Q01DX005 (ip), vehicle: saline): 0 of 10

Nc1ncn(C2OC(CO)C(O)C2O)c(=O)n1 (stereo unspecified)
T/C (T/C endpoint: mean survival time, dose: 0.75 mg/kg/injection, schedule: Q01DX009 (ip), vehicle: saline): 127 and 128 % of control
survivor count (T/C endpoint: mean survival time, dose: 1.5 mg/kg/injection, schedule: Q01DX009 (ip), vehicle: saline): 0 of 6 and 4 of 6
survivor count (T/C endpoint: mean survival time, dose: 3.0 mg/kg/injection, schedule: Q01DX009 (ip), vehicle: saline): 0 of 6
survivor count (T/C endpoint: mean survival time, dose: 6.0 mg/kg/injection, schedule: Q01DX009 (ip), vehicle: saline): 0 of 6
T/C (T/C endpoint: median survival time, dose: 0.38 mg/kg/injection, schedule: Q01DX009 (ip), vehicle: saline): 128 % of control
T/C (T/C endpoint: median survival time, dose: 0.57 mg/kg/injection, schedule: Q03HX024 (ip), vehicle: saline): 136 % of control
T/C (T/C endpoint: median survival time, dose: 0.75 mg/kg/injection, schedule: Q01DX009 (ip), vehicle: saline): 136 % of control
T/C (T/C endpoint: median survival time, dose: 1.13 mg/kg/injection, schedule: Q03HX024 (ip), vehicle: saline): 137 % of control
T/C [5]: 138 % of control
T/C (T/C endpoint: median survival time, dose: 1.56 mg/kg/injection, schedule: Q01DX009 (ip), vehicle: saline): 139 % of control
T/C (T/C endpoint: median survival time, dose: 3.0 mg/kg/injection, schedule: Q01DX009 (ip), vehicle: saline): 139 % of control
T/C (T/C endpoint: median survival time, dose: 4.0 mg/kg/injection, schedule: Q01DX005 (ip), vehicle: water): 137 % of control
survivor count (T/C endpoint: median survival time, dose: 9.0 mg/kg/injection, schedule: Q03HX024 (ip), vehicle: saline): 4 of 6
T/C (T/C endpoint: median survival time, dose: 37.5 mg/kg/injection, schedule: Q03HX024 (ip), vehicle: saline): 128 % of control
T/C (T/C endpoint: median survival time, dose: 200.0 mg/kg/injection, schedule: Q01DX009 (ip), vehicle: saline): 138 % of control

CN(CCO)C1=C(N2CC2)C(=O)C(N(C)CCO)=C(N2CC2)C1=O
T/C (T/C endpoint: mean survival time, dose: 1.0 mg/kg/injection, schedule: Q01DX009 (ip), vehicle: saline): 130 % of control
T/C (T/C endpoint: mean survival time, dose: 2.0 mg/kg/injection, schedule: Q01DX009 (ip), vehicle: saline): 132 and 136 % of control
T/C (T/C endpoint: mean survival time, dose: 4.0 mg/kg/injection, schedule: Q01DX009 (ip), vehicle: saline): 145 % of control

Nc1ncnc2c1ncn2C1OC(COP(=O)(O)O)C(O)C1O (stereo unspecified)
T/C (T/C endpoint: median survival time, dose: 800.0 mg/kg/injection, schedule: Q01DX009 (ip), vehicle: saline): 125 % of control
T/C (T/C endpoint: median survival time, dose: 1600.0 mg/kg/injection, schedule: Q01DX009 (ip), vehicle: saline): 127 % of control

C[C@]12C=CC(=O)C=C1CC[C@@H]1[C@@H]2CC[C@]2(C)OC(=O)CC[C@@H]12
survivor count (T/C endpoint: median survival time, dose: 512.0 mg/kg/injection, schedule: Q01DX009 (ip), vehicle: saline with Tween-80): 3 of 6 and 5 of 6

Cc1ncc(CO)c(C)c1O
survivor count [3]: 0 of 10
survivor count [4]: 0 of 10

c1ccc([C@H]2CN3CCSC3=N2)cc1
T/C (T/C endpoint: median survival time, dose: 10.0 mg/kg/injection, schedule: Q01DX005 (ip), vehicle: saline): 132 % of control
survivor count (T/C endpoint: median survival time, dose: 40.0 mg/kg/injection, schedule: Q01DX009 (ip), vehicle: saline): 0 of 6 and 2 of 6
survivor count (T/C endpoint: median survival time, dose: 80.0 mg/kg/injection, schedule: Q01DX005 (ip), vehicle: saline): 0 of 10
survivor count (T/C endpoint: median survival time, dose: 80.0 mg/kg/injection, schedule: Q01DX009 (ip), vehicle: saline): 0 of 6

COc1cc([C@@H]2c3cc4c(cc3[C@@H](OC3OC5CO[C@@H](c6cccs6)OC5C(O)C3O)[C@H]3COC(=O)[C@H]23)OCO4)cc(OC)c1O (stereo partly specified)
survivor count (T/C endpoint: median survival time, dose: 8.0 mg/kg/injection, schedule: Q01DX009 (ip), vehicle: saline): 5 of 6
